# Experimental data reported in patent US7038055B2, “Sulfone derivatives and their use in the treatment of autoimmune diseases and allergies” (SmithKlineBeecham plc, priority 2001, dated 2006).
# pIC50: −log10 of the molar value. For at least one compound, name, drawing or mass did not settle the structure.
# Test system: CD23 cleavage activity (release of soluble CD23) in RPMI 8866 cell plasma membranes
# Assay: RPMI 8866 Cell Membrane CD23 Cleavage Activity Assay
# Format: biochemical, human
# Conditions: RPMI 8866 plasma membranes, 37° C., sCD23 by EIA; read-out: IC50, inhibition of production of sCD23
# Experimental: Procedure 1: The ability of test compounds to inhibit the release of soluble CD23 was investigated by use of the following procedure.
# RPMI 8866 Cell Membrane CD23 Cleavage Activity Assay:
# Plasma membranes from RPMI 8866 cells, a human Epstein-Barr virus transformed B-cell line (Sarfati et al., Immunology 60 [1987] 539–547) expressing high levels of CD23 are purified using an aqueous extraction method. Cells resuspended in homogenization buffer (20 mM HEPES pH 7.4, 150 mM NaCl, 1.5 mM MgCl2, 1 mM DTT) are broken by N2 cavitation in a Parr bomb and the plasma membrane fraction mixed with other membranes is recovered by centrifugation at 10,000×g. […]
# The fractionated membranes are incubated at 37° C. for times up to 4 hrs to produce fragments of CD23 which are separated from the membrane by filtration in 0.2 micron Durapore filter plates (Millipore) after quenching the assay with a non-selecitve MMP inhibitor, e.g. 5 uM Preparation 1 from WO 95/31457 ([4-(N-Hydroxyamino)-2-(R)-isobutyl-3-(S)-(2-thiophenethiomethyl)succinyl]-(S)-phenylalanine-N-methylamide sodium salt, prepared according to the procedure described in Example 11 of WO 90/05719). sCD23 released from the membrane is determined using the EIA kit from The Binding Site (Birmingham, UK) or a similar one utilising MHM6 anti-CD23 mAb [Rowe et al., Int. […]
smiles,measurement,value
"CO[C@@H](C)C(CS(=O)(=O)Cc1cnc2ccccc2c1)N(O)C=O (stereo in doubt) [Example 2, N-[(2R,3S)-3-methoxy-1-(quinolin-3-yl-methanesulfonyl)butan-2-yl]-hydroxyformamide]",pIC50,7.40
